The assay can be described thus: qHTS Assay to Find Inhibitors of Chronic Active B-Cell Receptor Signaling. To be noted: ABC-DLBCL IkBa-CBG/CBR reporter, luminescence ratio (green luciferase fused to IkBa over red control in TMD8 lymphoma cells), 4 h. The method, boiled down: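 TMD8 ABC-DLBCL cells carrying doxycycline-inducible green luciferase fused to IkappaBalpha plus unfused red luciferase were exposed to compounds (up to 46 uM) for 4 hrs at 37C. Activity came from the overlap-corrected green/red luminescence ratio.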
Background: Quantitative high-throughput screening tests each substance at several concentrations.

Where [1] appears, read: measured here: CBR red luminescence, cell number.
The mark [2] stands for this setting: measured here: IkBa-CBG green luminescence.

In general, AC50 refers to the concentration giving half of the maximal activity seen.

The other results are listed elsewhere or left out. The main result of the screen is listed elsewhere. These columns were measured beside it and carry no call. Compounds called inactive in the main read-out are mostly missing here. Words in brackets tell the shape of the fitted curve; partial curves, single points and poor fits give uncertain potencies.

For `COc1ccc(NC(=S)NNc2ccc([N+](=O)[O-])cc2S(=O)(=O)Nc2ccc(C)cc2C)cc1`, the half-maximal activity concentration (AC50) under setting [1] is 20.6 µM [falling, single point]. On the same count and under the same terms, with `Cn1c(CC(=O)NNC(=O)c2ccc(Cl)nc2)nc2ccccc21` the figure was 0.058 µM [rising, full curve, poor fit].

`COc1ccc2c(c1)CC/C(=C\Nc1ccc3c(c1)OCO3)C2=O`: the AC50 under setting [1] was 16.4 µM [falling, partial curve].

As for `CC(=O)NCC(=O)OCC(=O)Nc1nc(-c2ccccc2)cs1`, under setting [1], the AC50 was 35.5 µM [falling, single point].

For the compound `CCCN(CC(=O)Nc1cc(Cl)ccc1Cl)C(=O)/C=C/c1ccco1`, the AC50 under setting [1] is 18.4 µM [falling, single point]. On to `COC(=O)c1cc(OC)c(OC)cc1NC(=O)c1cc(C(C)(C)C)oc1C`, for which, under setting [1], the AC50 was 3.55 µM [rising, partial curve, poor fit].

For `O=S(=O)(NC1c2cccc3cccc(c23)C1N1CCNCC1)c1ccc(Cl)cc1` (stereo not given), under setting [1], the AC50 is 22.4 µM [falling, single point]. The same measure, in the same setting: in the case of `CCOc1c(Br)cc(/C=N\NC(=O)c2ccccc2)cc1OC` it was 29.1 µM [falling, single point]. Consider `C/C(=N\NC(=S)NCc1ccccc1)c1cccs1`, for which the AC50 under setting [1] is 22.4 µM [falling, single point] and the AC50 under setting [2] is 3.98 µM [falling, single point].

Take `O=C(NC1CCCC1)c1cccc2c1C(=O)c1ccc(/C=C/c3ccccc3)cc1S2(=O)=O`: the half-maximal activity concentration (AC50) was 0.184 µM [falling, full curve, poor fit] under setting [1] and 9.2 µM [rising, partial curve, poor fit] under setting [2].

As to `COCc1cc(=O)[nH]c(SCC(=O)c2ccccc2)n1`, under setting [1], the AC50 was 11.2 µM [falling, partial curve]. Regarding `CC1(C)Cc2c(cnn2-c2cccc(F)c2)C(NC(=O)CSc2ccccn2)C1` (stereo not given), under setting [1], the AC50 is 35.5 µM [falling, partial curve, poor fit].

In the case of `CCCOC(=O)c1[nH]c2c(c1C)C(=O)CC(c1cccs1)C2` (stereo not given), the AC50 under setting [1] is 7.31 µM [rising, partial curve] and the AC50 under setting [2] is 5.17 µM [falling, partial curve, poor fit]. `CCc1ccc(NC(=O)CCn2ccnc2C)cc1`: the AC50 under setting [1] is 6.51 µM [rising, single point].

Regarding `Cc1ccc(-c2nc(N3CCN(C)CC3)c3ccccc3n2)cc1`, the AC50 under setting [1] is 3.98 µM [rising, partial curve, poor fit]. Take `CCC12CN3CCN(CC(C3)/C1=N\NC(=O)c1ccc(Cl)cc1)C2`: under setting [1], the AC50 was 7.94 µM [falling, partial curve, poor fit].

In the case of `O=C(COc1ccc(Cl)cc1)Nc1ccccc1C(=O)NCc1cccnc1`, the AC50 under setting [1] is 11.2 µM [falling, partial curve, poor fit]. On to `Cc1c2c(n3c(nc4ccccc43)c1C#N)N(CCN(C)C)CC2`, for which the AC50 under setting [2] was 3.16 µM [rising, full curve, poor fit]. With `O=C1CSC(c2ccc(F)cc2)N1c1nc2ccccc2s1` (stereo not given), the AC50 under setting [1] is 32.6 µM [falling, partial curve, poor fit]. `CC(C)NC(=O)CCCc1c[nH]c2ccccc12`: the AC50 under setting [1] was 35.5 µM [falling, partial curve, poor fit]. `CCC(CC)C(=O)Nc1cccc(-c2nc3ccccc3o2)c1`: the AC50 under setting [1] is 2.91 µM [rising, full curve, poor fit]. In the case of `COCCCNC(=O)c1ccc(S(=O)(=O)c2ccc(Cl)cc2)c(NC(C)=O)c1`, under setting [1], the AC50 is 0.0891 µM [rising, full curve, poor fit]. The same measure, in the same setting: in the case of `COc1cccc(CNC(=O)CCCn2ccc3cc(S(=O)(=O)N4CCCC4)ccc32)c1` it was 15.8 µM [falling, single point]. With `COc1ccc(S(=O)(=O)N(CC(=O)N/N=C/c2cccs2)c2cc(C)cc(C)c2)cc1OC`, the AC50 under setting [2] was 32.6 µM [rising, partial curve, poor fit]. On to `Cc1[nH]n(-c2cccc3ccccc23)c(=O)c1/C=N/NC(=O)c1cccc([N+](=O)[O-])c1`, for which the AC50 under setting [1] was 16.4 µM [falling, partial curve, poor fit]. Take `Cc1ccc(S(=O)(=O)N2CCCC2CNC(=O)c2ccccc2)cc1` (stereo not given): under setting [1], the AC50 is 18.4 µM [rising, partial curve, poor fit]. In the case of `O=C(CN1CCN(c2ccccc2)CC1)Nc1scc2c1c(=O)oc1ccccc12`, the AC50 under setting [1] was 22.4 µM [rising, partial curve, poor fit]. As to `CC(=O)NCCOC(=O)Nc1ccncc1`, under setting [1], the AC50 is 14.6 µM [rising, partial curve, poor fit]. For `N#Cc1ccsc1NC(=O)C1CCN(S(=O)(=O)c2cccs2)CC1`, the AC50 under setting [1] is 18.4 µM [falling, partial curve, poor fit]. Still for that read-out and setting: with `CC(=O)C1=C(O)C(=O)N(CCCO)C1c1ccccc1` (stereo not given) the figure was 2.31 µM [rising, partial curve, poor fit]; with `CCOC(=O)N1CCN(c2ncnc3c2cnn3-c2ccc(Cl)cc2)CC1`, 18.4 µM [falling, partial curve, poor fit]. For `COc1ccc2cc3cc(C(=O)N(C)C4CCCCC4)oc3nc2c1`, under setting [1], the half-maximal activity concentration (AC50) was 2.24 µM [rising, full curve, poor fit]. Still for that read-out and setting: with `COc1ccc(N2CCN(C(=O)CNS(=O)(=O)c3ccc(C)cc3)CC2)cc1` the figure was 8.91 µM [rising, partial curve, poor fit]; with `Cc1cc(C)cc(OCCNC(=O)CCc2ccccc2)c1`, 7.94 µM [rising, partial curve, poor fit]; with `COc1ccc2c(c1)c(=O)oc1c(C)c(OCc3cc(C(=O)O)oc3C)ccc12`, 2.82 µM [falling, single point]. Same read-out and setting: with `COc1ccc(S(=O)(=O)N2CCN(CC(=O)c3ccc(O)c(O)c3)CC2)cc1` the figure was 12.6 µM [rising, partial curve, poor fit]; with `CCN(CC)C(=O)c1cn(-c2ccccc2)nc1-c1ccc2c(c1)OCCO2`, 35.5 µM [falling, single point]. As for `CN(C)CCOC(=O)C1(c2ccccc2)CCOCC1`, the AC50 under setting [1] is 3.98 µM [rising, full curve, poor fit]. With `O=C(CSC1=NS(=O)(=O)c2cc(Cl)ccc2N1)Nc1cccc(F)c1`, the concentration at half-maximal activity (AC50) under setting [1] was 1.3 µM [falling, full curve]. For `CC(C)NC(=O)Nc1cccc2c1O[C@H](CN(C)C(=O)Nc1ccccc1)[C@@H](C)CN([C@H](C)CO)C2=O`, the AC50 under setting [1] is 9.2 µM [rising, partial curve].

As to `Cc1nn(-c2ccccc2)c(/N=C/c2ccccc2O)c1-c1ccccc1`, the half-maximal activity concentration (AC50) under setting [1] is 10.3 µM [falling, partial curve]. Consider `Nc1nc(-c2ccccc2)c(N=Nc2ccc(Cl)cc2)s1`, for which, under setting [1], the concentration at half-maximal activity (AC50) is 0.184 µM [rising, full curve].

Consider `COC(=O)Cn1c(=NC(=O)c2ccc([N+](=O)[O-])s2)sc2cc(Br)ccc21`, for which the AC50 under setting [1] was 13 µM [falling, partial curve, poor fit]. On the same count and under the same terms, in the case of `COc1ccccc1N(C(=O)CCl)c1cn(C(C)=O)c2ccccc12` it was 8.91 µM [falling, partial curve, poor fit]. For the compound `COc1ccc(COC(=O)c2ccc(N3CCCC3=O)cc2)cc1F`, the AC50 under setting [1] is 5.62 µM [rising, full curve, poor fit].

As for `N=c1c2c(-c3ccccc3)c(-c3ccccc3)n(Cc3ccco3)c2ncn1CCN1CCOCC1`, the AC50 under setting [1] was 3.16 µM [falling, single point]. On to `O=c1[nH]c(N/N=C\c2ccc3c(c2)OCO3)nc2ccccc12`, for which the half-maximal activity concentration (AC50) under setting [1] was 6.31 µM [falling, partial curve]. `CCNC(=S)Nc1cc(OC)c(NC(=O)c2ccco2)cc1OC`: the AC50 under setting [2] was 10 µM [rising, partial curve, poor fit]. `COc1cccc2sc3ccc(C#Cc4ccc(N)cc4)cc3c(=O)c12`: the AC50 under setting [1] is 11.2 µM [rising, partial curve, poor fit]. For `O=C(O)c1ccc(NS(=O)(=O)c2ccc(N3CCCC3)c([N+](=O)[O-])c2)cc1`, the AC50 under setting [1] is 6.31 µM [rising, single point]. On the same count and under the same terms, with `O=C(Nc1ccc(F)cc1)Nc1cccnc1Cl` the figure was 12.6 µM [falling, partial curve]; with `COc1ccc2cc3cc(C(=O)NCCCN4CCC(C)CC4)oc3nc2c1`, 14.1 µM [falling, single point]; with `CCOC(=O)c1ccc(NC(=S)NCCc2ccccc2F)cc1`, 0.447 µM [falling, full curve]. Take `Cc1onc(-c2ccccc2Cl)c1C(=O)OCC(=O)N1CCC(C)CC1`: under setting [1], the AC50 is 0.651 µM [rising, full curve, poor fit]. Consider `C/C(N)=C(/C#N)C(=O)COC(=O)c1ccccc1Oc1ccccc1`, for which the AC50 under setting [1] is 35.5 µM [falling, single point]. Consider `CC(C)c1ccc(C(C)NC(=S)NC2CCCCC2)cc1` (stereo not given), for which, under setting [1], the AC50 is 3.98 µM [rising, single point]. Take `Cc1cccc(NC(=O)CCc2ccc(C)o2)c1`: the AC50 under setting [1] is 29.1 µM [falling, single point]. On to `CN1CCN(C(=O)C2=C[C@H](c3coc4ccccc4c3=O)C[C@H](OCCCCO)O2)CC1`, for which the AC50 under setting [1] is 3.16 µM [falling, partial curve, poor fit].

Take `O=C(NCc1ccccc1)C(=O)c1cn(CC(=O)N2CCOCC2)c2ccccc12`: the AC50 under setting [1] is 1.78 µM [falling, partial curve, poor fit].

For `CCOC(=O)c1sc(-c2ccccn2)nc1C`, the AC50 under setting [1] is 3.98 µM [rising, full curve, poor fit]. Take `O=C(Nc1ccccn1)c1ccc(Cl)s1`: the AC50 under setting [1] was 35.5 µM [falling, single point]. On the same count and under the same terms, in the case of `COc1ccc(NC(=O)C2=C(C)NC(=O)NC2c2cccc(OC)c2OC)c(OC)c1` (stereo not given) it was 6.51 µM [rising, single point].

(Values after PubChem BioAssay AID493014 (National Center for Advancing Translational Sciences (NCATS), 2011).)
